Reference: PMC12678834
No constants are given. Whether binding was seen depends on the method and setting. Binding seen in cells or lysates may run through a third protein. Some entries that bind do so weakly or less than the wild type. Sequences can lack the tags named with a protein.

Protein sequences, listed by entry. Tags and fused reporters are not part of them. Lines headed by an entry give the natural chain unless they say otherwise; changes in a name come on top. Chains listed by the source or under a name are the forms on record and can include a tag or linker. Residues count along the entry.
DLL1-mTQ2-HA (human Delta-like 1) (O00548, residues 18-723): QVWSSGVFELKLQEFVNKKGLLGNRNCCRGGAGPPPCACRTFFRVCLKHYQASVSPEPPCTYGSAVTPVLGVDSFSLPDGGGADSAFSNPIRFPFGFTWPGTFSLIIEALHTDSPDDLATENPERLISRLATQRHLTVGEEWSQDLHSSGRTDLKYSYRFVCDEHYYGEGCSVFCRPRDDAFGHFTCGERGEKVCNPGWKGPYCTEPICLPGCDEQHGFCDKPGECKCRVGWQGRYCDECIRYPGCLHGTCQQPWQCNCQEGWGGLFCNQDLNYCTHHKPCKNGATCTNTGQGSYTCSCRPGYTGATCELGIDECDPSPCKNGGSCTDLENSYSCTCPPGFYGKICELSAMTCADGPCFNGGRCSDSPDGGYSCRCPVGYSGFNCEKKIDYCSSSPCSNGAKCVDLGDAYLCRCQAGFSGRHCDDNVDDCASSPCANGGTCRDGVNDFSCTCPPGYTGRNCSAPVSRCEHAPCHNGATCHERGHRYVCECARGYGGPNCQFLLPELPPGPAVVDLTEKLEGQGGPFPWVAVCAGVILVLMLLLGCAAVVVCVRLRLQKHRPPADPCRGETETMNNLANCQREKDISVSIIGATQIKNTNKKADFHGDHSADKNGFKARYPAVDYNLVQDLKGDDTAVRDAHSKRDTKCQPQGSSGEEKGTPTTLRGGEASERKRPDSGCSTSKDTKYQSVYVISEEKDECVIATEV
DLL1-N2D-mTQ2-HA (human Delta-like 1 with the second N of the NxxN motif NLAN changed to D) (O00548, form named): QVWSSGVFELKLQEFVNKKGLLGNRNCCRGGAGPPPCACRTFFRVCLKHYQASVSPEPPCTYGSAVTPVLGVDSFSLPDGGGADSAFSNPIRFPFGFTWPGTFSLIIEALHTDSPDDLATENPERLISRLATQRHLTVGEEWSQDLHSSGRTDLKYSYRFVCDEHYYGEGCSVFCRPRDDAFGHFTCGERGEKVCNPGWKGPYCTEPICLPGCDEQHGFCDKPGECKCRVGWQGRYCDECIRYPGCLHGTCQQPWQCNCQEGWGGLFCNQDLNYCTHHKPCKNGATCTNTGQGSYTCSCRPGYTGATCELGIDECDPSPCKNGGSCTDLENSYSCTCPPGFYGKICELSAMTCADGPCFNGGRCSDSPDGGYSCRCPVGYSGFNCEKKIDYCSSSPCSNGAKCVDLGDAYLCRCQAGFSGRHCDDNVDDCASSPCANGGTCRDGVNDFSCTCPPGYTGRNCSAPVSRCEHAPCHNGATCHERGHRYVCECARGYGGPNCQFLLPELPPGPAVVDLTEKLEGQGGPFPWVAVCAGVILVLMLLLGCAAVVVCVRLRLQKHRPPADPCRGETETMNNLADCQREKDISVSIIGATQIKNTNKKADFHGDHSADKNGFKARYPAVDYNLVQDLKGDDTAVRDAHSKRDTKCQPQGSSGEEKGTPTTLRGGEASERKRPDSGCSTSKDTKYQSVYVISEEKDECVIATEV
DLL4-mTQ2-HA (human Delta-like 4) (Q9NR61, residues 27-685): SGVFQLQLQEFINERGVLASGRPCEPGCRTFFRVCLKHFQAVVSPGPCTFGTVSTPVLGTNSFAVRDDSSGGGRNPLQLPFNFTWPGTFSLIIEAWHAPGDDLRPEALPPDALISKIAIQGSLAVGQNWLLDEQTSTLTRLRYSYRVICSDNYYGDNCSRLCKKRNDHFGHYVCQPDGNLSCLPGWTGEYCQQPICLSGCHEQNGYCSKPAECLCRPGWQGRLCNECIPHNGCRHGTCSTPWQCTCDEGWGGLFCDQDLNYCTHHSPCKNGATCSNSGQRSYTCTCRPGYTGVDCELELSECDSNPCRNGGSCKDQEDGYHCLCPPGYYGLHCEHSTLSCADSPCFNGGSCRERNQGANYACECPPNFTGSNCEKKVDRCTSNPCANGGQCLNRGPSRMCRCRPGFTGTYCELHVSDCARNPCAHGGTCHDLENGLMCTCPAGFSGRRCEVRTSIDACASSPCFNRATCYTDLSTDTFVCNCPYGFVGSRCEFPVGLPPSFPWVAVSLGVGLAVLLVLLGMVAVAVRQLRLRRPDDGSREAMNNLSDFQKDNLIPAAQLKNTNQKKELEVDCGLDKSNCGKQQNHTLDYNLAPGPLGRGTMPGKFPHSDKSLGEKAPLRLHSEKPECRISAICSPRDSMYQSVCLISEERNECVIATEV
DLL4-D2N-mTQ2-HA (human Delta-like 4 with the D of the cryptic motif NLSD changed to N) (Q9NR61, form named): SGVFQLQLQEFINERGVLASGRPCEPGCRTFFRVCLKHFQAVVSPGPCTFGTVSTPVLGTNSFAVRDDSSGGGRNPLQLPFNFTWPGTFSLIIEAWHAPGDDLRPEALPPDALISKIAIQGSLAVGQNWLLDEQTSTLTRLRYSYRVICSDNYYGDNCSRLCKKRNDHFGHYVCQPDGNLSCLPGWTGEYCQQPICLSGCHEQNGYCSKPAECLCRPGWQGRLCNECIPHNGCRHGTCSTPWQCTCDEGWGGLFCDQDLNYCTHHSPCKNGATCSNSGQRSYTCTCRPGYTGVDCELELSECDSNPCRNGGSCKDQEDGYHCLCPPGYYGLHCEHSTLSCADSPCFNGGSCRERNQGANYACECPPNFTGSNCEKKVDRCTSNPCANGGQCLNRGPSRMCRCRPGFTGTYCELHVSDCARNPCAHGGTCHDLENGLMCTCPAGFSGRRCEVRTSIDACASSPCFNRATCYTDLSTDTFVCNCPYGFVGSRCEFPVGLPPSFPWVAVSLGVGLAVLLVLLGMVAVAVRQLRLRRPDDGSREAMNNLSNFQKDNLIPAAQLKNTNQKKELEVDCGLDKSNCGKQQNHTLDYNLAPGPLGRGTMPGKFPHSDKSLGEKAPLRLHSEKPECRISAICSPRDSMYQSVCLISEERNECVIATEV
JAG1-mTQ2-HA (human Jagged 1) (P78504, residues 34-1218): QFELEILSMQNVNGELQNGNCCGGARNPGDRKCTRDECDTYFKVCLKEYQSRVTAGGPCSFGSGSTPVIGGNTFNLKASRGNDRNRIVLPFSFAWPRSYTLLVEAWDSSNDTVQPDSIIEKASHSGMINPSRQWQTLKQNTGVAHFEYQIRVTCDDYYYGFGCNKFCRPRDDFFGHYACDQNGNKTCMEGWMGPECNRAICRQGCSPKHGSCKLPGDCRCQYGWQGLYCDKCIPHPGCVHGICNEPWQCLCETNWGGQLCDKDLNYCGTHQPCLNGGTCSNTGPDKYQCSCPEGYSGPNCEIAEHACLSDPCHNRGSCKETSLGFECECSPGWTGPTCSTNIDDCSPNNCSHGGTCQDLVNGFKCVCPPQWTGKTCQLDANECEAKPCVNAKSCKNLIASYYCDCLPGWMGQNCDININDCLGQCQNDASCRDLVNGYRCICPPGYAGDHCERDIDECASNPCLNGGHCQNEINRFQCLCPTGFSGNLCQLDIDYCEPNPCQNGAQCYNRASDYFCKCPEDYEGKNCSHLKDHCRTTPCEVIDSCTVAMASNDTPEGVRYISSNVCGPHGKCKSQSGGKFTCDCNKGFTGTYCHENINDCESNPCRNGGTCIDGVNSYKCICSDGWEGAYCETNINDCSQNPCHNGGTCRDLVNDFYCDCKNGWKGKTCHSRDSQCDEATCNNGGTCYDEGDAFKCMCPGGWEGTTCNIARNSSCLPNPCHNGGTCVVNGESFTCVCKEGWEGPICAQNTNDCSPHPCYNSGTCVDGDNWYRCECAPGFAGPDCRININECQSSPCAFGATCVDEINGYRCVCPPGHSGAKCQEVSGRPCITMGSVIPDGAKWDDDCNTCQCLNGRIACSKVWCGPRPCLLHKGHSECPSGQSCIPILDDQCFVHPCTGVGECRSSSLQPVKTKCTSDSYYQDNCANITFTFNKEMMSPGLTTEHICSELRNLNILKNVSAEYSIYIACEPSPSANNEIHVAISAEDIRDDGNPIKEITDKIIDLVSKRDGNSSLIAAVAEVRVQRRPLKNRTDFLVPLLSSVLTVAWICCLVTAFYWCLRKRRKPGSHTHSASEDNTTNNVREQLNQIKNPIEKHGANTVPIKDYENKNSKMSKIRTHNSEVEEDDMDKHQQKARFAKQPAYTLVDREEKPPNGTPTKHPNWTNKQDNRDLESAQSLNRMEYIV
JAG1-N2A-mTQ2-HA (human Jagged 1 with the first N of the NxxN motif NTTN changed to A) (P78504, form named): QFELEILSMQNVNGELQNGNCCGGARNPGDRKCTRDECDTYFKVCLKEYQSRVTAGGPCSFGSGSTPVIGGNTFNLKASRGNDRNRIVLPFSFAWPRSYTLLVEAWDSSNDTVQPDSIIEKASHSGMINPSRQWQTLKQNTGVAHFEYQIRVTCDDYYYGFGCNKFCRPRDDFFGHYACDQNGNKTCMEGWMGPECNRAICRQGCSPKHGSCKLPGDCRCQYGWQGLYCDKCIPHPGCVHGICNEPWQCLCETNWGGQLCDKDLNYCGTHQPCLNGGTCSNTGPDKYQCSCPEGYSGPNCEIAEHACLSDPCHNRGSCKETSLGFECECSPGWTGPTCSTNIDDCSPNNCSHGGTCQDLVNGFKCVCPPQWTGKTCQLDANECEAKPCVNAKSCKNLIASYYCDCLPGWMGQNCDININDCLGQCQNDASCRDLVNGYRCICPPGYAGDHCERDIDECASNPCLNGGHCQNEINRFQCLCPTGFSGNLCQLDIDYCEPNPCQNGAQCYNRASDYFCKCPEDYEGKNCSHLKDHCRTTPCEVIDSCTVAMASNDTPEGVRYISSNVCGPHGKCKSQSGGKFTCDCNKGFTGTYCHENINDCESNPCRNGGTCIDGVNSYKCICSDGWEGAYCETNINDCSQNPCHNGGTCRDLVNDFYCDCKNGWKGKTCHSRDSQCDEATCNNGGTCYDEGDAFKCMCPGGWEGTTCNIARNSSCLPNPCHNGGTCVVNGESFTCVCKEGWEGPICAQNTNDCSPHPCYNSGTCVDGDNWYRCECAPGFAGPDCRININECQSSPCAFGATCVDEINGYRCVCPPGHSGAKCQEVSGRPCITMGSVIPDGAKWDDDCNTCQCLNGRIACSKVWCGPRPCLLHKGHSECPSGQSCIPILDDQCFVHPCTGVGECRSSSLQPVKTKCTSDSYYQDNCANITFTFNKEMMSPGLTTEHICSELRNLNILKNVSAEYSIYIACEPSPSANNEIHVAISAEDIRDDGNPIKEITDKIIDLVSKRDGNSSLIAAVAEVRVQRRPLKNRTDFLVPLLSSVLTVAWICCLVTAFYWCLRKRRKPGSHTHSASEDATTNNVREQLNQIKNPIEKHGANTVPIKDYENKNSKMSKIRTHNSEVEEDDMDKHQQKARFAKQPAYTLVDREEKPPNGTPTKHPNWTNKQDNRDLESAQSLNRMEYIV

biological target: T1, NEURL1-mCherry-FLAG (human Neuralized-like 1) (human) (UniProt O76050); experiment: co-IP; NEURL1-mCherry-FLAG as bait, precipitated with mouse anti-FLAG M2 and anti-mouse IgG-agarose beads from 1 mg cell lysate (50 mM Hepes pH 7.5, 3 mM EDTA, 3 mM CaCl2, 80 mM NaCl, 1% Triton), 18 h at 4 °C; co-precipitated HA-tagged ligands detected by anti-HA Western blot
T1 sequence: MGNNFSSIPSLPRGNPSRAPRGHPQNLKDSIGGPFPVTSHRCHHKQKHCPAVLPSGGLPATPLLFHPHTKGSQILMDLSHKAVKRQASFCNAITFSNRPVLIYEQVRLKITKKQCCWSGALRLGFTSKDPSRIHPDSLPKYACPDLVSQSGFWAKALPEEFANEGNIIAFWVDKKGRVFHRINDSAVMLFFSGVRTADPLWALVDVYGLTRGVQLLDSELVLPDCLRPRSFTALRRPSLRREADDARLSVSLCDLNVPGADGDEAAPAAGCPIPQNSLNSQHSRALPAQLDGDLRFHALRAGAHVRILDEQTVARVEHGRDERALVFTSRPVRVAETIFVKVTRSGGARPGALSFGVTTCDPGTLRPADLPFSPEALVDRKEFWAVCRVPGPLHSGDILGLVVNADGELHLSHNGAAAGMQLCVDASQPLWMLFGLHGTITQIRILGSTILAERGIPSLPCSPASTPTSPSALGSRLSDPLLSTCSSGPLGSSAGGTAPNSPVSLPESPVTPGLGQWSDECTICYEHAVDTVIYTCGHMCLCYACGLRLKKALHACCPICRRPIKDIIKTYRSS

Row | Substance | binding
1 | DLL1-N2D-mTQ2-HA (human Delta-like 1 with the second N of the NxxN motif NLAN changed to D) (from UniProt O00548 18-723) (ligand) | binds
2 | DLL1-mTQ2-HA (human Delta-like 1) (from UniProt O00548 18-723) (ligand) | binds
3 | DLL4-D2N-mTQ2-HA (human Delta-like 4 with the D of the cryptic motif NLSD changed to N) (from UniProt Q9NR61 27-685) (ligand) | binds
4 | DLL4-mTQ2-HA (human Delta-like 4) (from UniProt Q9NR61 27-685) (ligand) | binds
5 | JAG1-N2A-mTQ2-HA (human Jagged 1 with the first N of the NxxN motif NTTN changed to A) (from UniProt P78504 34-1218) (ligand) | binds
6 | JAG1-mTQ2-HA (human Jagged 1) (from UniProt P78504 34-1218) (ligand) | binds
